From article doi:10.64898/2025.12.11.693622 (bioRxiv, 2025)
No constants are given. Whether binding was seen depends on the method and setting. Some results given as binding are weak or reduced against the parent protein; the word gives no strength.

Tests used:
[1] = target: full-length wild-type CCDC127 (BN-PAGE of HEK293T mitochondria) (human) (UniProt Q96BQ5); test: native gel or EMSA
[2] = target: full-length CCDC127 K73A (human) (UniProt Q96BQ5); test: native gel or EMSA

binding [1] | binding [2] | Binder
binds | – | CCDC127 WT-HA (full-length CCDC127 with HA tag) (natural protein, human, UniProt Q96BQ5 1-260, looked up) MNNLNDPPNWNIRPNSRADGGDGSRWNYALLVPMLGLAAFRWIWSRESQKEVEKEREAYRRRTAAFQQDLEAKYHAMISENRRAVAQLSLELEKEQNRTASYREALISQGRKLVEEKKLLEQERAQVMQEKRQVQPLRSAYLSCLQREENWQRRARLLLKEFEAVLTERQNIYCSLFLPRSKRLEIEKSLLVRASVDPVAADLEMAAGLTDIFQHDTYCGDVWNTNKRQNGRLMWLYLKYWELVVELKKFKRVEEAILEK
– | binds | full-length CCDC127 K73A (protein, UniProt Q96BQ5 1-260) MNNLNDPPNWNIRPNSRADGGDGSRWNYALLVPMLGLAAFRWIWSRESQKEVEKEREAYRRRTAAFQQDLEAAYHAMISENRRAVAQLSLELEKEQNRTASYREALISQGRKLVEEKKLLEQERAQVMQEKRQVQPLRSAYLSCLQREENWQRRARLLLKEFEAVLTERQNIYCSLFLPRSKRLEIEKSLLVRASVDPVAADLEMAAGLTDIFQHDTYCGDVWNTNKRQNGRLMWLYLKYWELVVELKKFKRVEEAILEK
